PubChem BioAssay AID686938, Drosophila RNAi Screening Center | 2013
In all, the deposit lists about 23,000 reagents; this is an unselected part of those with a known target gene and a result. In the full data, 75 (0.33%) got an active call. 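Raw plate signals without normalisation; calls rest on plate z-scores that were not deposited; ratio present for only 364 wells.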 Unmarked entries are inactive. A plus sign joins genes that one reagent is predicted to hit. Not given: the dose of the treatment.

Screen: 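Looking for CRAC channel components and the factors controlling them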 (primary screen)
System: Drosophila S2R+ cells
Knock-down reagent: long dsRNA against Drosophila genes, about 0.25 µg dsRNA per well, roughly 10,000 cells
Timing: 5 days of knock-down before the calcium assay
Conditions: thapsigargin (SERCA pump blocker) to empty calcium stores; entry signal taken 4 min after adding it
Detection: 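Duplicate raw fluo-4 intensities per well from a plate reader, at rest and four minutes after thapsigargin emptied calcium stores; entry-to-rest ratio filled for only some wells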
Scale: calcium entry signal: higher = stronger calcium signal after store depletion; entry to resting ratio: higher = more calcium entry relative to resting level; resting calcium signal: higher = higher resting calcium signal
Rule for the call: 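Called when the plate z-score of the entry-to-rest ratio, mean of duplicates, falls below −3; wells with low overall dye signal (Fmax z below −2) or more than five off-targets excluded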
Meaning of the calls: active = strongly reduced calcium entry; inactive = no strong reduction

no.	gene knocked down	DRSC id	calcium entry signal, replicate 1 (fluorescence units)	calcium entry signal, replicate 2 (fluorescence units)	entry to resting ratio	resting calcium signal, replicate 1 (fluorescence units)	resting calcium signal, replicate 2 (fluorescence units)
1	CG33172	DRSC21793	3.71e7	3.88e7		2.18e7	1.95e7
2	LManV	DRSC03223	4.60e7			2.18e7	
3	CG14606	DRSC12550	4.71e7	3.63e7		2.32e7	1.67e7
4	CG4213	DRSC00641	4.20e7	4.38e7		2.06e7	1.88e7
5	mex1	DRSC11368	5.52e7	5.14e7		2.32e7	2.00e7
6	bchs	DRSC03126	3.36e7	2.99e7		1.56e7	1.47e7
7	Dtg	DRSC15998	3.94e7	4.63e7		1.69e7	2.04e7
8	CG5172	DRSC19936	3.99e7	3.14e7		1.92e7	1.40e7
9	Tip60	DRSC18661	4.29e7	4.63e7		2.69e7	2.81e7
10	BaraA1 + BaraA2	DRSC05417	3.89e7	5.07e7		1.74e7	2.14e7
11	gek	DRSC04688	4.04e7			2.00e7	
12	CG13313	DRSC09984	3.49e7	4.36e7		1.59e7	1.72e7
13	TP53INP	DRSC08178	3.78e7	5.30e7		2.62e7	2.52e7
14	TP53INP	DRSC22552	3.31e7	4.10e7		1.70e7	1.57e7
15	Adi1	DRSC10945	2.38e7	3.07e7		1.29e7	1.35e7
16	Adi1	DRSC21485	2.49e7	3.54e7		1.21e7	1.54e7
17	CG33770	DRSC11717	3.12e7	4.60e7		1.50e7	2.00e7
18	yellow-e	DRSC12966	2.85e7	5.04e7		1.56e7	2.24e7
19	yellow-e	DRSC16563	3.28e7	6.10e7		1.59e7	7.17e7
20	crb	DRSC16927	2.66e7	2.73e7		1.35e7	1.27e7
21	Ing3	DRSC20002	3.29e7	4.38e7		1.94e7	2.24e7
22	CG17272	DRSC15211	4.16e7	5.19e7		5.85e7	2.12e7
23	GC1	DRSC15322	4.03e7	3.66e7		1.83e7	1.90e7
24	CG3345	DRSC00596	3.71e7			2.23e7	
25	Vsx2	DRSC17397	2.85e7	3.06e7		1.69e7	1.79e7
26	Vsx2	DRSC18087	2.49e7	3.47e7		1.29e7	1.68e7
27	Vsx2	DRSC18088	2.51e7	4.77e7		1.24e7	2.28e7
28	Vsx2	DRSC18089	2.53e7	5.09e7		1.31e7	2.72e7
29	Vsx2	DRSC23089	5.71e7	2.88e7		2.85e7	1.33e7
30	Vsx2	DRSC23273	4.91e7	4.68e7		2.35e7	1.97e7
31	CG6788	DRSC20007	2.76e7	3.29e7		1.47e7	1.64e7
32	CG2202	DRSC19841	4.48e7	3.43e7		1.88e7	1.62e7
33	rau	DRSC03125	4.67e7			2.21e7	
34	Tret1-2	DRSC07117	2.96e7	4.60e7		1.61e7	2.10e7
35	Semp1	DRSC01874	4.40e7	2.88e7		1.91e7	1.42e7
36	CG9592	DRSC11078	3.66e7	3.67e7		1.63e7	1.46e7
37	Tbc1d8-9	DRSC11820	3.13e7	3.64e7		1.35e7	2.20e7
38	Pus10	DRSC00629	3.88e7			1.80e7	
39	RFeSP	DRSC00702	4.10e7	4.92e7		1.76e7	1.83e7
40	Peritrophin-15b	DRSC02266	4.13e7	5.74e7		2.00e7	2.43e7
41	CG2211	DRSC08559	3.53e7	4.93e7		1.72e7	2.08e7
42	Eig71Ec	DRSC11150	3.53e7	3.93e7		1.70e7	1.75e7
43	CG11286	DRSC14293	3.87e7	2.59e7		1.86e7	1.30e7
44	mre11	DRSC03570	4.23e7	3.47e7		1.88e7	1.43e7
45	mre11	DRSC22628	4.00e7	3.14e7		2.43e7	1.46e7
46	Ilp8	DRSC10076	3.46e7	4.56e7		1.71e7	1.69e7
47	Pal1	DRSC06106	3.56e7	3.40e7		1.47e7	1.57e7
48	lectin-24A	DRSC00604	4.16e7	3.81e7		1.90e7	1.70e7
49	CNT1	DRSC06082	3.51e7	3.57e7		1.56e7	1.55e7
50	CG14546	DRSC14890	4.69e7	7.40e7		2.48e7	3.07e7
51	CG33098	DRSC22903	4.39e7	3.89e7		2.35e7	1.84e7
52	CG17300	DRSC10260	2.64e7	3.82e7		1.42e7	1.62e7
53	kek6	DRSC15299	3.75e7	3.88e7	2.1	1.80e7	1.78e7
54	l(2)k14505	DRSC03106	3.60e7			1.70e7	
55	MAPk-Ak2	DRSC18678	3.36e7	4.18e7		1.49e7	1.83e7
56	CG42361	DRSC04391	4.04e7	4.25e7		2.10e7	2.08e7
57	RpL35A	DRSC12302	1.27e7	1.56e7		8.83e6	1.06e7
58	CG13359	DRSC18539	3.59e7	4.26e7	2	1.76e7	1.76e7
59	Syn1	DRSC11803	3.33e7	4.76e7		1.62e7	2.26e7
60	Syn1	DRSC11804	3.31e7	5.32e7		1.56e7	2.38e7
61	alpha4GT1	DRSC00488	4.09e7			2.35e7	
62	beta-Spec	DRSC20311	2.99e7	2.80e7		1.48e7	1.33e7
63	beat-IIIa	DRSC01575	2.87e7	4.44e7		1.62e7	2.00e7
64	beat-IIIa	DRSC01577	3.27e7	3.79e7		1.85e7	1.80e7
65	beat-IIIa	DRSC02178	3.68e7	2.31e7		1.71e7	1.13e7
66	mGluR	DRSC17215	3.57e7	4.92e7	2	1.83e7	2.06e7
67	kis	DRSC00521	3.49e7	4.01e7		1.54e7	1.65e7
68	kis	DRSC00625	4.92e7	5.14e7		2.18e7	2.07e7
69	kis	DRSC00823	3.43e7			1.77e7	
70	l(3)72Dp	DRSC10477	4.44e7	6.05e7		2.24e7	2.60e7
71	CG31365	DRSC15610	3.70e7	3.75e7		1.79e7	1.69e7
72	CG13031	DRSC09911	3.86e7	5.86e7		1.89e7	2.15e7
73	twe	DRSC03628	4.57e7			2.19e7	
74	PPP4R2r	DRSC18695	3.02e7	4.73e7		1.60e7	2.75e7
75	PPP4R2r	DRSC21503	2.77e7	4.16e7		1.50e7	1.80e7

Part of the list above, limited to “resting calcium signal, replicate 1 (fluorescence units)”:
Tip60 [DRSC18661]	2.69e7
BaraA1 + BaraA2 [DRSC05417]	1.74e7
gek [DRSC04688]	2.00e7
CG13313 [DRSC09984]	1.59e7
TP53INP [DRSC08178]	2.62e7
TP53INP [DRSC22552]	1.70e7
